These are yes or no findings as the source states them, for the method shown. In cells and extracts the contact can be indirect. Binding calls can cover weak binding; strength is not graded here. Values belong to the substance of their own block, whether it stands above or below them.
Tests used:
[1] = biological target: GFP-tagged mouse Notch3 intracellular domain (N3ICD), WT (mouse) (UniProt Q61982); assay: co-IP; GFP-tagged N3ICD (WT, SA or SE) and FLAG-tagged CSL overexpressed in HeLa cells; GFP-trap immunoprecipitation; Western blot
[2] = biological target: FLAG-tagged mouse Notch3 intracellular domain (N3ICD) (mouse) (UniProt Q61982); assay: co-IP; FLAG-tagged N3ICD and His-tagged PIM1 overexpressed in MCF-7 cells, treated with DMSO or 10 μM DHPCC-9; anti-FLAG affinity agarose gel or HisLink resin; Western blot
[3] = biological target: GFP-tagged mouse Notch3 intracellular domain (N3ICD), WT (mouse) (UniProt Q61982); assay: FRET or BRET; fluorescence-lifetime imaging of RFP-tagged PIM1 and GFP-tagged N3ICD transiently overexpressed in MCF-7 cells
[4] = biological target: endogenously expressed human NOTCH3 intracellular domain (N3ICD) (human) (UniProt Q9UM47); assay: proximity ligation; endogenous proteins in MCF-7 cells; one PIM1 and two different N3ICD antibodies

Sequences of proteins named here, by UniProt entry; tags and fusion partners are left off. A change or cut given only in a name is not applied to a line headed by its entry.
UniProt Q61982: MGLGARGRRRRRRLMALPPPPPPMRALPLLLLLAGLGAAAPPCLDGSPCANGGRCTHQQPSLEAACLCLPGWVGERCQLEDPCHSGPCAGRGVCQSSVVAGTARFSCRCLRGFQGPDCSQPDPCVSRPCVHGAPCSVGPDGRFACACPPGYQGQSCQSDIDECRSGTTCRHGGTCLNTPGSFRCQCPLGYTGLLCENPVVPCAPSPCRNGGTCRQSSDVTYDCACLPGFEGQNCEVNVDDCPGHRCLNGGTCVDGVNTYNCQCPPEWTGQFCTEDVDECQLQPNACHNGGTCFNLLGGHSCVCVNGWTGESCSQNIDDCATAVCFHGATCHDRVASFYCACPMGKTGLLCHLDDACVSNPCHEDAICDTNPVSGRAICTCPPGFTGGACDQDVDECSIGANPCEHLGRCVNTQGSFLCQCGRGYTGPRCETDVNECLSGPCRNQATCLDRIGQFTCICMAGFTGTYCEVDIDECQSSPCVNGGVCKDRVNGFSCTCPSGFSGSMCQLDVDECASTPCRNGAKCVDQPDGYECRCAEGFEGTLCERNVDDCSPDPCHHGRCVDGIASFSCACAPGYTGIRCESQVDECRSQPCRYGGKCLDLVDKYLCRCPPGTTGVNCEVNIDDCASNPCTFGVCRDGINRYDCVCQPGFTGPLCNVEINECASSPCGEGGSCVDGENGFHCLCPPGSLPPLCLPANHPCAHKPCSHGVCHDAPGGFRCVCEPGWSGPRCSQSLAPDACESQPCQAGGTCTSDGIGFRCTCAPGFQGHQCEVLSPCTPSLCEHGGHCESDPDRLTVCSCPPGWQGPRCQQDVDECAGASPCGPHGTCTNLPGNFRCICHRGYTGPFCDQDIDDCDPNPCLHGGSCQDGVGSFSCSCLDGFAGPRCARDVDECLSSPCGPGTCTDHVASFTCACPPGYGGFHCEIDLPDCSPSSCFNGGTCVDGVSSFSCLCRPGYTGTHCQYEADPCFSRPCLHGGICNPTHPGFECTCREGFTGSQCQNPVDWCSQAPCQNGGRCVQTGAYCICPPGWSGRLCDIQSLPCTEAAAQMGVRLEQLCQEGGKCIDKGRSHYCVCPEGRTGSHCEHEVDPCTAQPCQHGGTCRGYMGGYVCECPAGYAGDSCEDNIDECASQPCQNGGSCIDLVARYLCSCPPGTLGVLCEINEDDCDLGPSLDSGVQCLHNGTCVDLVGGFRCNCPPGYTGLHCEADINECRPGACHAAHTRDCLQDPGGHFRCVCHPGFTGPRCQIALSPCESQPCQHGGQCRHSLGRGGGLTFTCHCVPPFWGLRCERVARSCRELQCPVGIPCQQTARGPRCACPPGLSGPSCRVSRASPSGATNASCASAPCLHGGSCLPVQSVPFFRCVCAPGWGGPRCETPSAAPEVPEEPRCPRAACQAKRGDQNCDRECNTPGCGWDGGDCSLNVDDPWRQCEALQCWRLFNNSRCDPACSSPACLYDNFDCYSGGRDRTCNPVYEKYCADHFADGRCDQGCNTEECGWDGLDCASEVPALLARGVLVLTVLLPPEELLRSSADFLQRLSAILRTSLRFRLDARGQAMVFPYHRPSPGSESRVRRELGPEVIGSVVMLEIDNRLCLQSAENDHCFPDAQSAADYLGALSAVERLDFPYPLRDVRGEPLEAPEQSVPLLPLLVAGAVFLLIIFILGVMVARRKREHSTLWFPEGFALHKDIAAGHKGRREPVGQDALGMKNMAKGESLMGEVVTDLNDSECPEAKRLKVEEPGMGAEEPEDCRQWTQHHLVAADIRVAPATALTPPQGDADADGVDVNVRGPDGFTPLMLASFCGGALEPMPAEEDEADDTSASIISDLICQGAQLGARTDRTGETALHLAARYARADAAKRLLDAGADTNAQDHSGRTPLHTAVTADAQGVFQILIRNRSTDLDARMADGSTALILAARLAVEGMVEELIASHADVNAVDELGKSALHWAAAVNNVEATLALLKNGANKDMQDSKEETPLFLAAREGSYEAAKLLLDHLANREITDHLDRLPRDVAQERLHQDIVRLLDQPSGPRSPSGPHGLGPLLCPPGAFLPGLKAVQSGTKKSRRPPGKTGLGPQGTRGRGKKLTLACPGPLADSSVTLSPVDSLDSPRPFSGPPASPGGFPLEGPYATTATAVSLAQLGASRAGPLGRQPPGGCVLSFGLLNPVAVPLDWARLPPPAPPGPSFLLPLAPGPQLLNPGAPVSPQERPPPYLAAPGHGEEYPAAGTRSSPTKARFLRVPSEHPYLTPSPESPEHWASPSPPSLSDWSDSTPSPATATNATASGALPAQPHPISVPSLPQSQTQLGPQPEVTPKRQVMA
UniProt Q9UM47: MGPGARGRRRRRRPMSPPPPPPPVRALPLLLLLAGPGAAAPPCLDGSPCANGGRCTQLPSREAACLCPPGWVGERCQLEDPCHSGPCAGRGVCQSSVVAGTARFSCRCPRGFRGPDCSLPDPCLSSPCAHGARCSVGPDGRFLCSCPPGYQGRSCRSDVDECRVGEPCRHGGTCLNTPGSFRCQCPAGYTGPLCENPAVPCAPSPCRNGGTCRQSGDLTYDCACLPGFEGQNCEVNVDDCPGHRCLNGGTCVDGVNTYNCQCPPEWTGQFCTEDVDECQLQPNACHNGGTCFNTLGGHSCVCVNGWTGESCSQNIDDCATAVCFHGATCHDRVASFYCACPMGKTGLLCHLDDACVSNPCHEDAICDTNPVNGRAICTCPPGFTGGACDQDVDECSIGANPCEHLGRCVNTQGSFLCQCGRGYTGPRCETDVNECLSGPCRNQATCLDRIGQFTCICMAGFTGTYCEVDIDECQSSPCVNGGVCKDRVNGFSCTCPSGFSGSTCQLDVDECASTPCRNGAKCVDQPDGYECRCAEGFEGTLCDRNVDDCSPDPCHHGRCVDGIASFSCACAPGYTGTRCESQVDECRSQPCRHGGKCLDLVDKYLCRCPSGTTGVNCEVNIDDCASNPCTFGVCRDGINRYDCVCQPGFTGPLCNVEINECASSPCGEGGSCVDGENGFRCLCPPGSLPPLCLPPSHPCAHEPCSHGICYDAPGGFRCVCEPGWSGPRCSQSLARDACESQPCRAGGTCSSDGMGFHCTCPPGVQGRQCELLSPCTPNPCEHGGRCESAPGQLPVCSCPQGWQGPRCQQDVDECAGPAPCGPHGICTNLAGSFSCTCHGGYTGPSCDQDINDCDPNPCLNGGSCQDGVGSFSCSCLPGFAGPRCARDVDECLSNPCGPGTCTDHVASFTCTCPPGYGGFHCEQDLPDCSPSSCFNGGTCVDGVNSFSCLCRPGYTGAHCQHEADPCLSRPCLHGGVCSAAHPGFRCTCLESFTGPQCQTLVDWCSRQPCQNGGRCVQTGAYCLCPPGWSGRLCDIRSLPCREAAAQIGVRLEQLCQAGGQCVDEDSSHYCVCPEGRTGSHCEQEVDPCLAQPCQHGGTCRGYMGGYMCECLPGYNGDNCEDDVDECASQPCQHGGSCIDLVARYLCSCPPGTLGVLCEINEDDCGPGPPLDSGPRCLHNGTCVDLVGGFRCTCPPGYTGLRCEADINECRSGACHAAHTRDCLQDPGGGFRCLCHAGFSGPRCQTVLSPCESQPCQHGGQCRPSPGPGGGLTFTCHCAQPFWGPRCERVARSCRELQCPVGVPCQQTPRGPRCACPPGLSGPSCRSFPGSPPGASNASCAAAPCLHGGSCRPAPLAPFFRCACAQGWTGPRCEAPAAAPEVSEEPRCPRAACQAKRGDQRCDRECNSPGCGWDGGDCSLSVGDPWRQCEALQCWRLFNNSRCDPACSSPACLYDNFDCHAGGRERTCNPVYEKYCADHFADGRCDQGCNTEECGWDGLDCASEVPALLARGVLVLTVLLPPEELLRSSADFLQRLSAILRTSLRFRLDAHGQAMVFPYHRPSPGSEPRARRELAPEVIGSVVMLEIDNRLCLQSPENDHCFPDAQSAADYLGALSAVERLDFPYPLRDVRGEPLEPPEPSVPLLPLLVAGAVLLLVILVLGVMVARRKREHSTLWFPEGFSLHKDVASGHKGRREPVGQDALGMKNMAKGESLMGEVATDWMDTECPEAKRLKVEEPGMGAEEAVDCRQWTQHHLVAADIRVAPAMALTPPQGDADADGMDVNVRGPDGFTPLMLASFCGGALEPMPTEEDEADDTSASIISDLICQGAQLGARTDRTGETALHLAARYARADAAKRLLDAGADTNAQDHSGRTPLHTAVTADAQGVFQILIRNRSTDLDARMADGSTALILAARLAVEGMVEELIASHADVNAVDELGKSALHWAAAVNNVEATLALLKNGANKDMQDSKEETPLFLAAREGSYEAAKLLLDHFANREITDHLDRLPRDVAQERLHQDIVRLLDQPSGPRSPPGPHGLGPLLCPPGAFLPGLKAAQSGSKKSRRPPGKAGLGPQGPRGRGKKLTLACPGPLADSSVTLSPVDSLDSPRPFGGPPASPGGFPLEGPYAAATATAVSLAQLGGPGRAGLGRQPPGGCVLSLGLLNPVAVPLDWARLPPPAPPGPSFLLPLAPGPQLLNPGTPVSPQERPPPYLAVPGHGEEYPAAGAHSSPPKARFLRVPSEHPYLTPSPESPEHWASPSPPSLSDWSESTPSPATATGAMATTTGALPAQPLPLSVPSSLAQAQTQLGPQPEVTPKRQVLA
UniProt P31266: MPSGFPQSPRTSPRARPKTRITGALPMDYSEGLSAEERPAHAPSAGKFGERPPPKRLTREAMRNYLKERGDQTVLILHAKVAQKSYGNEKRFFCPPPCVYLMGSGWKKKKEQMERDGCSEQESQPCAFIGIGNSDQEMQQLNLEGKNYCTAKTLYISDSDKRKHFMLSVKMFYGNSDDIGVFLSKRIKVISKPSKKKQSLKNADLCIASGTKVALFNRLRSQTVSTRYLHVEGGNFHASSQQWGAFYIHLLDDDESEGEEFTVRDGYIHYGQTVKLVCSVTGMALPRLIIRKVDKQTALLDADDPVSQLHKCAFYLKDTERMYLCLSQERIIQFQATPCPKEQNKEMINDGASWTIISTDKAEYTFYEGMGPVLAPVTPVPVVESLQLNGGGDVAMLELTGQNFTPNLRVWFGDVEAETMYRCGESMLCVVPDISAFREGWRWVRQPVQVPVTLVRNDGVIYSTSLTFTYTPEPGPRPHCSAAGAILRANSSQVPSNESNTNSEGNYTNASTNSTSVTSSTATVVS
UniProt P11309: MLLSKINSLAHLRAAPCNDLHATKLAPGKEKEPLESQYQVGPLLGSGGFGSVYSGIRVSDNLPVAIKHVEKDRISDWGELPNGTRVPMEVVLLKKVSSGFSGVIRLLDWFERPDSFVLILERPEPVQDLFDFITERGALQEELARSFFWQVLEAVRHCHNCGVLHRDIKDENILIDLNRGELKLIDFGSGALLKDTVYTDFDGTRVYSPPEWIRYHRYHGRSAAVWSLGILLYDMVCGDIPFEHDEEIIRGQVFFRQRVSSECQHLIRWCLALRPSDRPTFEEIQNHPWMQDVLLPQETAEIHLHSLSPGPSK

binding [1]: binds
Substance: FLAG-tagged CSL (from UniProt P31266 1-526)

binding [2]: binds
Substance: His-tagged human PIM1 (from UniProt P11309 1-313) (enzyme)

binding [3]: binds
Substance: RFP-tagged human PIM1 (from UniProt P11309 1-313) (enzyme)

binding [4]: binds
Substance: endogenously expressed human PIM1 (from UniProt P11309 1-313) (enzyme)

Reference: article PMC8100066
